This is one part of the list. The main result of the screen is listed elsewhere. These columns were measured beside it and carry no call. The list favours compounds with an active or inconclusive main result. The note in brackets gives the kind of curve behind each potency; many fits are weak.

This note sets out measurements from PubChem BioAssay AID1487 (National Center for Advancing Translational Sciences (NCATS), 2009).

This experiment in a line: qHTS Assay for Modulators of Lamin A Splicing. The note with it: HeLa LMNA splicing GFP/RFP minigene ratio, 48 h. The essentials: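 S3 HeLa stable clones carrying a lamin A-EGFP splicing minigene plus DsRed2 were seeded at 600 cells/well in Opti-MEM with 2% FBS, pin-dosed and incubated 48 h at 37°C. Acumen cytometry (488 nm) gave the GFP/RFP total-intensity ratio.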
(In general: qHTS replaces the single test concentration by a dilution series.)

Where [1] appears, read: measured here: GFP splicing reporter channel.
[2] abbreviates: measured here: RFP viability control channel.

As to `COc1ccccc1Cc1nc2ccccc2nc1SCC(=O)Nc1ccccc1C(F)(F)F`, under setting [1], the half-maximal activity concentration (AC50) is 0.708 µM [rising, full curve, poor fit].
Consider `CC(=O)c1ccc(COC(=O)c2ccccc2NC(=O)C(C)C)cc1`, for which the AC50 is 3.55 µM [falling, full curve, poor fit] under setting [1] and 3.16 µM [falling, full curve] under setting [2].
Take `COCCn1nnnc1C(c1cccs1)N1CCN(c2ccccc2)CC1` (centres undefined): the AC50 under setting [1] was 12.6 µM [rising, single point].
Same read-out and setting: to `CCNC(=S)N1CCN(S(=O)(=O)c2ccccc2C(F)(F)F)CC1` belongs 0.02 µM [falling, full curve, poor fit].
Regarding `CC(=O)Nc1ccc(S(=O)(=O)N2CCC(n3cnc4cc(F)ccc43)CC2)cc1`, the AC50 reads like this: under setting [1], 15.8 µM [rising, partial curve, poor fit]; under setting [2], 22.4 µM [rising, single point].
For `O=C(NCCCN1CCOCC1)c1ccc(Cl)c(S(=O)(=O)N2CCCCCC2)c1`, under setting [2], the concentration at half-maximal activity (AC50) was 35.5 µM [rising, single point].
On to `[N-]=[N+]=Nc1ccc(C(=O)CSC[C@H](NC(=O)CC[C@H](N)C(=O)O)C(=O)NCC(=O)O)cc1`, for which the AC50 is, setting by setting: under setting [1], 5.01 µM [rising, partial curve]; under setting [2], 2.82 µM [rising, partial curve].
Take `COC(=O)c1ccc(CSc2ncn[nH]2)o1`: the AC50 under setting [2] is 12.6 µM [falling, single point].
Same read-out and setting: to `CC(=O)NC(Cc1ccccc1)C(=O)OCC(=O)c1ccc(Br)cc1` (centres undefined) belongs 0.0891 µM [rising, full curve, poor fit]; to `CC(C)c1noc2ncc(C(=O)c3cc(Cl)cc(Cl)c3O)cc12`, 14.1 µM [rising, single point].
`COc1ccc(C2Cc3ccccc3C(=O)O2)cc1` (centres undefined): the AC50 under setting [1] is 35.5 µM [rising, single point].
For `CCc1noc(C)c1C(=O)N1CCCC(C(=O)c2ccc(OC)c(F)c2)C1` (centres undefined), the half-maximal activity concentration (AC50) reads like this: under setting [1], 8.91 µM [falling, partial curve, poor fit]; under setting [2], 7.08 µM [falling, full curve, poor fit].
`O=C(NC1CCCCC1)C(c1cccnc1)N(C(=O)CCl)c1ccccc1Cl` (centres undefined): the AC50 under setting [2] is 11.2 µM [rising, partial curve].
Turning to `Cc1nc2cc(-c3cccc(F)c3)nn2c(C)c1CCC(=O)NC(C)c1ccc2c(c1)OCCO2` (centres undefined), the concentration at half-maximal activity (AC50) was 5.62 µM [rising, full curve, poor fit] under setting [1] and 11.2 µM [rising, partial curve, poor fit] under setting [2].
For `CCC(C)COC(=O)C(C#N)c1nc2ccccc2nc1N1CCCCC1` (centres undefined), the concentration at half-maximal activity (AC50) under setting [2] is 17.8 µM [rising, partial curve].
The same measure, in the same setting: as for `CC1CCc2c(C(=O)NCc3cccnc3)csc2C1` (centres undefined), the figure is 11.2 µM [rising, partial curve].
Consider `C=CCc1cccc(CNc2nc3ccccc3n2CC)c1O`, for which the half-maximal activity concentration (AC50) under setting [1] was 35.5 µM [falling, single point].
As to `COc1cc(OC)cc(C(=O)N(Cc2nc(-c3cccc(C)c3)no2)C(C)C)c1`, the concentration at half-maximal activity (AC50) under setting [2] was 35.5 µM [rising, single point].
Still for that read-out and setting: to `COc1cc(CC(=O)Nc2nccs2)cc(OC)c1OC` belongs 17.8 µM [rising, single point]; to `O=C(c1ccc2c(c1)CCCC2)N1CCN(c2nc3ccc(F)cc3s2)CC1`, 0.178 µM [rising, full curve, poor fit].
In the case of `ClCc1cc2ccccc2nc1Cl`, under setting [1], the AC50 is 0.0794 µM [falling, full curve].
`Cc1ccc(N(CC(=O)Nc2ccc3c(c2)OCCO3)S(=O)(=O)c2c(C)noc2C)cc1`: the half-maximal activity concentration (AC50) under setting [2] was 14.1 µM [rising, single point].
As to `CCN(CC)C(=S)SCC(=O)Nc1nc(=O)c2ccccc2s1`, under setting [2], the half-maximal activity concentration (AC50) is 0.158 µM [falling, partial curve, poor fit].
Turning to `CNC1=C(N(C(C)=O)c2ccc(Br)cc2)C(=O)c2ccccc2C1=O`, the AC50 under setting [1] is 6.31 µM [falling, full curve, poor fit] and the AC50 under setting [2] is 10 µM [falling, partial curve, poor fit].
Consider `COc1ccc(S(=O)(=O)N2CCN(CCO)CC2)cc1-c1nnc2c3ccccc3c(C)nn12`, for which the AC50 is, setting by setting: under setting [1], 14.1 µM [rising, single point]; under setting [2], 35.5 µM [rising, single point].
Regarding `CC1(C)C=C2[C@H]3CC[C@@H]4[C@@]5(C)CCC(=O)C(C)(C)[C@@H]5CC[C@@]4(C)[C@]3(C)CC[C@@]2(C(=O)O)CC1`, the half-maximal activity concentration (AC50) under setting [2] was 0.0112 µM [falling, full curve, poor fit].
As to `O=C(CSC1=N/C(=C/c2ccc(Cl)c(Cl)c2)C(=O)N1c1ccccc1F)NC1CC1`, the half-maximal activity concentration (AC50) is 10 µM [rising, single point] under setting [1] and 20 µM [rising, single point] under setting [2].
`COc1ccc(/C=N/NC(=O)c2[nH]c3ccc(Br)cc3c2-c2ccccc2)cc1`: the AC50 is 0.708 µM [rising, full curve] under setting [1] and 0.794 µM [rising, full curve] under setting [2].
For the compound `COc1ccc(CC(=O)Nc2cc(-c3nc4cccnc4s3)ccc2C)cc1`, under setting [1], the AC50 is 14.1 µM [rising, single point].
Regarding `COc1cccc(-c2nc(NC(C)(C)C)c3ccccc3n2)c1O`, the AC50 runs as follows: under setting [1], 31.6 µM [rising, single point]; under setting [2], 20 µM [rising, single point].
On to `O=S(=O)(Nc1cc(C(F)(F)F)ccc1N1CCOCC1)c1ccccc1`, for which the half-maximal activity concentration (AC50) under setting [1] was 0.126 µM [rising, full curve, poor fit].
For `Cc1cccc(NC(=S)N/N=C/c2ccc([N+](=O)[O-])s2)c1`, the half-maximal activity concentration (AC50) under setting [2] was 35.5 µM [falling, single point].
For the compound `CSc1nc2ccc(Nc3nc(N4CCOCC4)nc(N4CCOCC4)n3)cc2s1`, the AC50 under setting [1] was 35.5 µM [rising, single point] and the AC50 under setting [2] was 22.4 µM [rising, single point].
With `C/C(=N\NC(=S)Nc1cccc(C)c1)c1cc2ccccc2o1`, the AC50 under setting [2] is 2.24 µM [rising, full curve, poor fit].
Turning to `Cc1ccc(OCc2nc(C#N)c(NCc3ccc4c(c3)OCO4)o2)cc1`, the half-maximal activity concentration (AC50) under setting [1] was 35.5 µM [rising, single point].
As for `S=C(NCc1ccc(Cl)c(Cl)c1)Nc1ccc2c(c1)OCO2`, the AC50 under setting [2] is 35.5 µM [rising, single point].
Turning to `O=[N+]([O-])c1cc(CN2CCN(c3cccc(C(F)(F)F)c3)CC2)c2cccnc2c1O`, under setting [1], the half-maximal activity concentration (AC50) is 3.55 µM [rising, partial curve].
`Cc1ccc(C)n1-c1ccc(C(=O)NCc2ccncc2)cc1`: the AC50 under setting [1] is 0.126 µM [rising, full curve, poor fit] and the half-maximal activity concentration (AC50) under setting [2] is 22.4 µM [rising, partial curve, poor fit].
For the compound `O=C(Cc1ccc2c(c1)OCCO2)c1c(O)cc(O)cc1O`, the AC50 runs as follows: under setting [1], 25.1 µM [rising, single point]; under setting [2], 25.1 µM [rising, single point].
Take `O=C(NCC1CCN(Cc2ccccc2Cl)CC1)c1cc2ccc3cccnc3c2[nH]1`: the AC50 by setting is: under setting [1], 28.2 µM [rising, partial curve]; under setting [2], 17.8 µM [rising, partial curve].
Regarding `COc1ccccc1CNC(=O)CCc1c(C)nn(-c2ccc(N3CCCC3)nn2)c1C`, under setting [2], the concentration at half-maximal activity (AC50) was 0.251 µM [falling, full curve].
`Cc1cc(=O)n(Cc2ccccc2Cl)c2c1c(C)nn2-c1ccccc1`: the AC50 is, setting by setting: under setting [1], 10 µM [rising, partial curve, poor fit]; under setting [2], 20 µM [rising, partial curve, poor fit].
For the compound `CCC1CCCCN1C(=O)c1cccc(S(=O)(=O)Nc2cc(C(F)(F)F)ccc2Cl)c1` (centres undefined), the AC50 is 14.1 µM [rising, single point] under setting [1] and 25.1 µM [rising, single point] under setting [2].
As for `Cc1ccc(CSc2nc3ccsc3c(=O)n2CCC(C)C)cc1`, the concentration at half-maximal activity (AC50) under setting [2] was 25.1 µM [rising, single point].
On to `Nn1c(SCC(=O)Nc2ccccc2F)nnc1-c1cccnc1`, for which, under setting [2], the AC50 is 0.01 µM [rising, full curve, poor fit].
With `CC(C)CCNC(=O)NC(=O)COC(=O)/C=C/c1cccc([N+](=O)[O-])c1`, the AC50 by setting is: under setting [1], 0.0141 µM [falling, full curve]; under setting [2], 0.01 µM [falling, full curve, poor fit].
`Cn1cc(C(=O)c2ccc(Cl)cc2Cl)cc1C(=O)N/N=C(\N)COc1ccc(F)cc1`: the AC50 under setting [2] is 31.6 µM [rising, single point].
The same measure, in the same setting: as for `CCn1c(Cc2ccccc2)nnc1SCC(=O)Nc1ccccc1N1CCOCC1`, the figure is 22.4 µM [rising, single point]; as for `CCN(C(=O)Cn1cc(C(=O)c2ccc(F)cc2)c(=O)c2ccc(C)nc21)c1cccc(C)c1`, 0.00282 µM [falling, full curve, poor fit]; as for `CCOC(=O)c1cc(OC(=O)c2cccc(Cl)c2)n(-c2ccccc2)n1`, 0.891 µM [falling, full curve, poor fit].
For `COc1ccc(/C=C2/C(=O)OCc3cc(OC)c(OC)cc32)cc1`, the concentration at half-maximal activity (AC50) reads like this: under setting [1], 5.62 µM [rising, single point]; under setting [2], 3.55 µM [rising, single point].
With `Cc1ccc(S(=O)(=O)N/N=C/c2ccc(OS(=O)(=O)c3ccc(C)c([N+](=O)[O-])c3)cc2)cc1`, the AC50 by setting is: under setting [1], 31.6 µM [rising, single point]; under setting [2], 15.8 µM [rising, single point].
As to `CCOC(=O)c1ccc(N2C(=O)C3C(/C=C/c4ccccc4)OC4(C(=O)c5ccccc5C4=O)C3C2=O)cc1` (centres undefined), the AC50 under setting [2] is 3.98 µM [rising, partial curve, poor fit].
For `Cc1cccc(OCCOc2ccccc2C=C(C#N)C#N)c1`, the AC50 is, setting by setting: under setting [1], 35.5 µM [falling, single point]; under setting [2], 35.5 µM [falling, single point].

One may read the AC50 as the concentration giving half of the maximal activity seen.
